Measurements: patent US5234949A (Academic Pharmaceuticals, Inc., priority 1992, dated 1993)

Details: acetate buffer

In the case of `CCCCc1oc2ccccc2c1C(=O)c1cc(I)c(OCCN(CC)CC)c(I)c1` [Amiodarone, 2-n-butyl-3-(3,5-diiodo-4-β-N-diethylaminoethoxybenzoyl) benzofuran], the “HPLC amiodarone peak vs amiodarone dissolved in polysorbate 80” value is reported as “identical”.
